The values that follow are results of earlier work, collected in patent US20120177742A1, “NANOPARTICLE AND SURFACE-MODIFIED PARTICULATE COATINGS, COATED BALLOONS, AND METHODS THEREFORE” (MICELL TECHNOLOGIES, INC., priority 2010, published 2012).

For the data set the following is noted: cited from earlier work.

Turning to `CO[C@H]1C[C@@H]2CC[C@@H](C)[C@@](O)(O2)C(=O)C(=O)N2CCCC[C@H]2C(=O)O[C@H]([C@H](C)C[C@@H]2CC[C@@H](O)[C@H](OC)C2)CC(=O)[C@H](C)/C=C(\C)[C@@H](O)[C@@H](OC)C(=O)[C@H](C)C[C@H](C)/C=C/C=C/C=C/1C` [sirolimus], the solubility in ethanol entry is on record as “up to 50 mg/ml”.
